Tested on: persons with MS
Assay: Retrospective cohort study of US administrative claims databases: differential clinical management events per S1P
Parameters: species or system human
Conditions: IBM CCAE study cohort

Structure (SMILES) | DDIs (average number of S1P's differential DDI drugs taken concomitantly with any MS DMT in a 1-year period)
CC(C)Oc1ccc(-c2nc(-c3cccc4c3CC[C@@H]4NCCO)no2)cc1C#N [Ozanimod] | 1.76
CCC/N=C1\S/C(=C\c2ccc(OC[C@H](O)CO)c(Cl)c2)C(=O)N1c1ccccc1C [Ponesimod, (R)-5-[3-chloro-4-(2,3-dihydroxy-propoxy)-benz[Z]ylidene]-2-([Z]-propylimino)-3-o-tolyl-thiazolidin-4-one] | 0.02
CCc1cc(/C(C)=N/OCc2ccc(C3CCCCC3)c(C(F)(F)F)c2)ccc1CN1CC(C(=O)O)C1 [Siponimod] | 0.10

Reference: patent US12419869B2, “Methods of treating multiple sclerosis” (Vanda Pharmaceuticals Inc., priority 2021, dated 2025)
